Data published in the supplement of paper PMC10331698.
± gives the standard deviation of the averaged measurements. Most values lie at the level of the controls, where differences are scatter.

Key:
Test in all cases: level (log10 ratio to DMSO vehicle control); higher = higher biomarker level / cell amount than vehicle control
[1] = compound: O=P(O)(O)CCC(F)(F)C(F)(F)C(F)(F)C(F)(F)C(F)(F)C(F)(F)F [2-(Perfluorohexyl)ethylphosphonic acid]; details: 2200 nM; in DMSO
Description: (§1)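 BioMAP Diversity Plus panel of 12 human primary cell co-culture systems (3C, 4H, LPS, SAg, BT, BF4T, BE3C, CASM3C, HDF3CGF, KF3CT, MyoF, Mphg). Compounds were added 1 h before stimulation and left for 24 h (MyoF 48 h; BT 72 h for soluble read-outs or 6 d for IgG). Biomarkers were read by ELISA, cytotoxicity by SRB, PBMC viability and proliferation by Alamar Blue. Each well value was divided by the mean of 8 DMSO control wells on the same plate and log10 transformed; duplicate blinded samples were tested at 4 concentrations.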

[2] = compound: NC(=O)C(F)(F)C(F)(F)F [Pentafluoropropionamide]; details: 2200 nM; in DMSO
Description: as §1

[3] = compound: OCCCCC(F)(F)C(F)(F)C(F)(F)C(F)(F)F [4:4 Fluorotelomer alcohol]; details: 2200 nM; in DMSO
Description: as §1

[4] = compound: C=C(C)C(=O)OCC(F)(F)C(F)(F)C(F)(F)C(F)(F)C(F)(F)C(F)(F)C(F)(F)F; details: in DMSO
Description: as §1

[5] = compound: O=S(=O)(O)C(F)(F)C(F)(F)C(F)(F)C(F)(F)C(F)(F)C(F)(F)C(F)(F)C(F)(F)F [Perfluorooctanesulfonic acid]; details: 2200 nM; in DMSO
Description: as §1

[6] = compound: FC(F)(F)C(F)(F)C(F)(F)CI [Heptafluorobutyl iodide]; details: 2200 nM; in DMSO
Description: as §1

[7] = compound: C=CC(=O)OCC(F)(F)C(F)(F)C(F)(F)C(F)(F)C(F)(F)C(F)(F)C(F)(F)F [1H,1H-Perfluorooctyl acrylate]; details: 2200 nM; in DMSO
Description: as §1

[8] = compound: CO[Si](C)(CCC(F)(F)C(F)(F)C(F)(F)C(F)(F)C(F)(F)C(F)(F)F)OC [Dimethoxymethyl((perfluorohexyl)ethyl)silane]; details: in DMSO
Description: as §1

[9] = compound: O=S(=O)(OCC(F)(F)F)C(F)(F)C(F)(F)C(F)(F)C(F)(F)F [2,2,2-Trifluoroethyl perfluorobutanesulfonate]; details: 2200 nM; in DMSO
Description: as §1

[10] = compound: OCC(F)(F)C(F)(F)C(F)(F)C(F)(F)C(F)(F)C(F)F [1H,1H,7H-Dodecafluoro-1-heptanol]; details: 2200 nM; in DMSO
Description: as §1

[11] = compound: NC(=O)C(F)(F)C(F)(F)C(F)(F)C(F)F; details: in DMSO
Description: as §1

[12] = compound: O=S(=O)(F)C(F)(F)C(F)(F)C(F)(F)C(F)(F)C(F)(F)C(F)(F)C(F)(F)C(F)(F)F [Perfluorooctanesulfonyl fluoride]; details: 2200 nM; in DMSO
Description: as §1

[13] = compound: C=CC(F)(F)C(F)(F)C(F)(F)C(F)(F)C(F)(F)C(F)(F)C(F)(F)C(F)(F)C=C [1,8-Divinylperfluorooctane]; details: in DMSO
Description: as §1

[14] = compound: FC(F)(F)C(F)(F)C(F)(F)CC1CO1 [1H,1H-Heptafluorobutyl epoxide]; details: 2200 nM; in DMSO
Description: as §1

[15] = compound: O=C(O)C(F)(F)C(F)(F)C(F)F [4H-Perfluorobutanoic acid]; details: in DMSO
Description: as §1

[16] = compound: NS(=O)(=O)C(F)(F)C(F)(F)C(F)(F)C(F)(F)C(F)(F)C(F)(F)C(F)(F)C(F)(F)F [Perfluorooctanesulfonamide]; details: in DMSO
Description: as §1

[17] = compound: O=S(=O)(O)C(F)(F)C(F)(F)C(F)(F)C(F)(F)C(F)(F)C(F)(F)C(F)(F)C(F)(F)F [Potassium perfluorooctanesulfonate]; details: 2200 nM; in DMSO
Description: as §1

[18] = compound: COC(=O)C(F)(F)C(F)(F)OC(F)(C(F)(F)F)C(F)(F)OC(F)=C(F)F [Methyl perfluoro(3-(1-ethenyloxypropan-2-yloxy)propanoate)]; details: in DMSO
Description: as §1

Row | Test System | level (log10) [1] | level (log10) [2] | level (log10) [3] | level (log10) ([4]; 740 nM) | level (log10) ([4]; 2200 nM) | level (log10) [5] | level (log10) [6] | level (log10) [7] | level (log10) ([8]; 740 nM) | level (log10) ([8]; 2200 nM) | level (log10) [9] | level (log10) [10] | level (log10) ([11]; 2200 nM) | level (log10) ([11]; 6700 nM) | level (log10) ([11]; 20000 nM) | level (log10) ([11]; 60000 nM) | level (log10) [12] | level (log10) ([13]; 740 nM) | level (log10) ([13]; 2200 nM) | level (log10) [14] | level (log10) ([15]; 2200 nM) | level (log10) ([15]; 6700 nM) | level (log10) ([15]; 20000 nM) | level (log10) ([15]; 60000 nM) | level (log10) ([16]; 2200 nM) | level (log10) ([16]; 6700 nM) | level (log10) ([16]; 20000 nM) | level (log10) [17] | level (log10) ([18]; 740 nM) | level (log10) ([18]; 2200 nM)
1 | BT:PBMC Cytotoxicity | 0.006 ± 0.031 | 0.026 ± 0.035 | -0.0165 ± 0.015 | 0.003 ± 0.045 | 0.006 ± 0.042 | 0.0045 ± 0.019 | 0.027 ± 0.011 | 0.019 ± 0.0028 | -0.014 ± 0.037 | 0.0165 ± 0.0021 | 0.021 ± 0.025 | -0.006 ± 0.0071 | -0.0005 ± 0.035 | -0.001 ± 0.0042 | -0.0015 ± 0.0035 | 0.016 | 0.028 ± 0.045 | 0.012 ± 0.051 | 0.0245 ± 0.016 | -0.002 ± 0.05 | -0.02 ± 0.0057 | -0.0175 ± 0.018 | -0.0075 ± 0.0035 | -0.002 ± 0.047 | -0.015 ± 0.037 | 0.0175 ± 0.0064 | 0.03 ± 0.0099 | -0.011 ± 0.0085 | 0.0335 ± 0.036 | 0.0355 ± 0.03
2 | KF3CT:CXCL8/IL-8 | -0.013 ± 0.018 | -0.0005 ± 0.028 | 0.012 ± 0.0085 | -0.0015 ± 0.0064 | -0.0005 ± 0.011 | -0.003 ± 0.021 | -0.0105 ± 0.0064 | -0.012 | -0.0135 ± 0.0021 | -0.02 ± 0.0071 | -0.0035 ± 0.0078 | 0.0185 ± 0.03 | 0.005 ± 0.014 | -0.009 ± 0.0028 | 0.011 ± 0.011 | 0.019 ± 0.011 | 0.008 ± 0.055 | 0.0025 ± 0.03 | -0.0125 ± 0.0064 | -0.009 ± 0.044 | 0.005 ± 0.02 | 0.0025 ± 0.0078 | 0.01 ± 0.0085 | 0.017 ± 0.0042 | 0.0005 ± 0.005 | -0.0135 ± 0.021 | -0.0525 ± 0.018 | 0.007 | 0 ± 0.0014 | -0.01 ± 0.016
3 | 3C:Proliferation | -0.0505 ± 0.047 | -0.023 ± 0.038 | -0.029 ± 0.057 | -0.0615 ± 0.044 | -0.011 ± 0.052 | 0.015 ± 0.082 | -0.0085 ± 0.029 | -0.0005 ± 0.059 | -0.0315 ± 0.061 | -0.0245 ± 0.039 | -0.0165 ± 0.066 | -0.029 ± 0.064 | 0 ± 0.083 | -0.0385 ± 0.049 | -0.038 ± 0.061 | -0.03 ± 0.031 | 0.022 ± 0.052 | -0.0405 ± 0.087 | -0.062 ± 0.033 | -0.0485 ± 0.019 | -0.032 ± 0.078 | -0.023 ± 0.02 | -0.03 ± 0.041 | 0.013 ± 0.065 | -0.0515 ± 0.016 | -0.039 ± 0.0099 | -0.208 ± 0.02 | -0.0745 ± 0.067 | -0.044 ± 0.014 | -0.03 ± 0.016
4 | MyoF:CXCL8/IL-8 | 0.0075 ± 0.015 | -0.0135 ± 0.028 | 0.027 ± 0.0014 | 0.0065 ± 0.018 | -0.007 ± 0.021 | -0.027 ± 0.0028 | -0.007 ± 0.011 | 0.0315 ± 0.053 | -0.007 ± 0.017 | -0.0085 ± 0.011 | 0.0335 ± 0.032 | -0.0195 ± 0.09 | -0.0245 ± 0.0064 | -0.0285 ± 0.0092 | -0.0185 ± 0.028 | 0.018 ± 0.054 | 0.0015 ± 0.018 | 0.015 ± 0.0057 | -0.0285 ± 0.011 | -0.003 ± 0.023 | -0.007 ± 0.017 | -0.0125 ± 0.059 | -0.0145 ± 0.0035 | 0.0465 ± 0.074 | -0.0185 ± 0.005 | -0.04 ± 0.031 | -0.013 ± 0.0085 | 0.0105 ± 0.06 | 0.0285 ± 0.04 | 0.0395 ± 0.043
